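Genome-wide siRNA knockdown in TC32 Ewing sarcoma cells, comparing luciferase light from an NR0B1-promoter reporter with a CMV-promoter reporter 48 hours after transfection.
Each siRNA was applied at 20 nM.
A z-score of the log NR0B1-over-CMV signal, less the median of siRNAs with the same seed; more negative means a stronger specific loss of the NR0B1 reporter.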

This is part of the screen; most of the strongest results are not listed here.
Sequences are the guide (antisense) strand, without overhang.

siRNA,gene,seed-corrected z-score
UGAACUUUUUCAGACACUC,CAMK2B,0.07016
UUUCAAUUCAGUGUCAUGC,C15orf62,0.2952
UUGAUAGUUAGAAAGUAGG,HTR2A,-0.1494
UCUGAGAUGACGCAAGUGC,C8orf76,-0.8885
UUUGUCUCCCGUUUUGGUG,MMAB,0.1858
UUCUGCCCAAGCGAAAUCC,LOC149351,-0.4573
UAACAUUCAAGGUAAAUAU,PF4V1,0.8474
AAAGUGGAAAGGCUUACAU,LINC01011,-0.65
UUCCAUAUCUUCUUGGUGU,ZNF681,0.9993
UUUUAGGAAAGCAGCUGCG,BAHD1,0.1388
UGCAGGGUUGUUCCCAUCC,HMGN4,-0.5453
AAACGAGCUGGUAGUACCG,PDS5B,0.1537
AAAGAAUCCAUGACACUCA,H2BFWT,-1.003
UCUAGAAGAAAUUCGACCC,ASNSD1,0.5175
UUUCCGAUAAAACAACAUG,USP40,0.0958
ACUGCUGUAACGUGGAUGC,GEMIN8,-1.404
UUCUCCCUUAGCUCAUAGC,LRR1,-0.154
UUCCUUACUCCGAUUCUCC,CCDC63,0.169
UCUUGCUUAAAGAUGACUC,IGFN1,-0.4897
UCAGUGCACACAGUGAGCU,PMS2P12,-0.1952
AAAGUUUCUCUUAGGUUGU,SLC51B,0.4919
UGAUGAUCCACAUGAACUG,GABARAPL2,-0.9004
UCAGUUUCACUCUCGUCUG,KDM5C,-1.386
UUUCGUUUACUGGAACCUC,UPF2,1.499
UUUGGAACAGGGUAAACAG,C1orf140,0.01424
UAAGUUGCAACAUAAAUAC,HSFY1,-1.702
UAAGUGAUUAACCUCCAAG,HMP19,1.845
AACCUUAAGAGCAAUGCUG,USP6,-0.02272
UUUUGGUAGAACUGCAGCU,KRT83,-0.4827
UAGCUUACCACAUCCCACU,TRPV2,-1.561
AUCGGUAGAGAGAUUUUCG,NUP153,-0.6767
UCAAUAACAAGGUGAUUGC,HUS1,0.7145
UCUAGGACAAAGACCUUGG,CLDN19,-0.2146
UUCGGAGCUAAAGCGACUC,XPNPEP2,-0.8462
UGAUCUAACAGCUUGUUCU,MRPL52,-0.4144
AAUCAUAUCAUCUCGUUCC,NUP205,0.1793
AAAUGCACAUGUACUUGCG,TRAF3IP2-AS1,0.5372
AUCUGCACAAGUUUCUUCC,PTPN23,-0.05968
UUCCGCACGAUCGCAAACU,DAPK3,-0.09749
UUCCUAACAGUCCCUGUUC,SPRY1,1.151
UCUUUCGUCAGCUUCAGCC,SNTG2,1.355
UCUAUCUCAAAGGCACCUG,MIEN1,0.2287
UAAAAUCAACGCAAAAAUC,TMBIM4,1.11
UACUGGUCCAUGAUGUGCG,MAN2B2,-0.4313
UAGCGAUCCACUUCCUUGU,TMEM206,0.8818

For reference, 2 entries once more:

siRNA,gene,seed-corrected z-score
UUCCUUACUCCGAUUCUCC,CCDC63,0.169
UCUGAGAUGACGCAAGUGC,C8orf76,-0.8885

Data taken from PubChem BioAssay AID1159506, deposited by NCATS (2015).